# Test results published in PubChem BioAssay AID1487 (National Center for Advancing Translational Sciences (NCATS), 2009).
# Some of the results follow. These are further read-outs of the screen, such as a control signal, another cell line or another target. No call is given for them. Compounds called inactive in the main read-out are mostly missing here. The note in brackets gives the kind of curve behind each potency; many fits are weak.
# Assay: qHTS Assay for Modulators of Lamin A Splicing
# Details: HeLa LMNA splicing GFP/RFP minigene ratio, 48 h
# In short: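 S3 HeLa cells stably expressing lamin A-EGFP splicing minigene plus DsRed2, 600 cells/well, 48 h compound exposure at 37C. Laser-scanning cytometry; analysed as GFP (500-530 nm)/RFP (575-640 nm) total intensity ratio; 0.5% DMSO vehicle.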
# [1] = measured here: RFP viability control channel
# [2] = measured here: GFP splicing reporter channel
SMILES,AC50 [1],AC50 [2]
COc1cc(OC)cc(C(=O)N[C@H](C(=O)OCC(=O)c2ccc(F)cc2)C(C)C)c1,"35.5 µM [rising, single point]",
CCN(CC)S(=O)(=O)c1cccc(NC(=O)COC(=O)/C=C/c2ccco2)c1,,"0.0316 µM [rising, full curve, poor fit]"
Cc1cc(Nc2nc(Cl)c(Cl)cc2Cl)n(-c2ccccc2)n1,"7.94 µM [rising, partial curve, poor fit]",
CON(C)c1nc(OCCNC(=O)OCc2ccc(Cl)cc2C)nc(N(C)C)n1,"35.5 µM [rising, single point]",
NC(Cc1cccc(-c2ccccc2CP(=O)(O)O)c1)C(=O)O (configuration not stated),,"0.0251 µM [rising, full curve, poor fit]"
O=C(Nc1ccc(N2CCN(C(=O)c3ccc(Cl)cc3)CC2)cc1)c1ccc2c(c1)OCCO2,"3.98 µM [rising, partial curve, poor fit]","3.55 µM [rising, single point]"
Cc1ccc(S(=O)(=O)Nc2ccc3c(c2)CCC3)cc1C,"11.2 µM [rising, partial curve]",
CC(C)(C)OC(=O)[C@H]1[C@H](c2ccc([N+](=O)[O-])cc2)C2(C(=O)c3ccccc3C2=O)C2c3ccccc3C=NN21 (some centres not stated),"12.6 µM [rising, partial curve, poor fit]","10 µM [rising, partial curve, poor fit]"
CCCCCCNC(=O)CC(NS(=O)(=O)c1ccc(NC(C)=O)cc1)C(C)C (configuration not stated),"12.6 µM [rising, single point]",
O=C(Cc1ccc(-n2c(=O)[nH]c3ccsc3c2=O)cc1)N1CCN(c2ccc(Cl)cc2)CC1,"35.5 µM [rising, single point]",
C/C(CC(=O)Nc1ccc(C)c(Cl)c1)=N\NC(=O)c1ccncc1,,"0.00447 µM [rising, full curve, poor fit]"
Brc1ccc(OCc2nc(-c3ccccn3)n[nH]2)cc1,"22.4 µM [rising, single point]",
CN(C)/N=C/c1cc([N+](=O)[O-])ccc1O,,"0.0501 µM [falling, full curve, poor fit]"
CC1=C(C(N)=O)C(c2ccc(F)cc2)n2nc(-c3ccccc3Cl)nc2N1 (configuration not stated),"1.41 µM [falling, full curve, poor fit]",
COc1cc(C2Nc3ccccc3C(=O)N2c2ccccc2)ccc1O (configuration not stated),,"0.316 µM [falling, full curve]"
CC1CCN(S(=O)(=O)c2ccc(NC(=O)Cn3nnc(-c4ccccc4F)n3)cc2)CC1,,"2.24 µM [rising, partial curve]"
CC(=O)Nn1cnc2c(c1=O)C1(CCCCC1)Cc1ccccc1-2,"31.6 µM [rising, single point]",
Nc1nc(SCC(=O)Nc2ccccc2)nc2nc3c(cc12)CCCC3,"35.5 µM [rising, single point]",
COc1ccc(-c2nnc3ccc(SC(C(C)=O)C(C)=O)nn23)cc1OC,"14.1 µM [rising, single point]",
O=C(/C=C/c1ccc(S(=O)(=O)N2CCOCC2)cc1)NC(=S)NCCCn1ccnc1,"14.1 µM [rising, single point]","0.0251 µM [falling, full curve, poor fit]"
Cc1ccc(S(=O)(=O)NC(CC(=O)N2CCc3ccccc32)c2ccco2)cc1 (configuration not stated),"11.2 µM [rising, single point]","14.1 µM [rising, single point]"
Cc1csc(NC(=O)c2cc3c(s2)CCC3)n1,"14.1 µM [rising, partial curve]",
CC(=O)N(O)CCCCCNC(=O)CCC(=O)N(O)CCCCCNC(=O)CCC(=O)N(O)CCCCCN,"15.8 µM [rising, partial curve, poor fit]","14.1 µM [falling, single point]"
CCCC1O[C@@H]2C[C@H]3[C@@H]4CCC5=CC(=O)C=C[C@]5(C)C4[C@@H](O)C[C@]3(C)[C@]2(C(=O)CO)O1 (some centres not stated),"0.00224 µM [falling, full curve, poor fit]","5.62 µM [falling, partial curve, poor fit]"
O=C(Cn1ncc(Cl)c(Cl)c1=O)N1CCN(S(=O)(=O)c2ccc3ccccc3c2)CC1,"5.62 µM [falling, single point]","3.16 µM [falling, full curve]"
COc1ccc(CCN=C(N)NS(=O)(=O)c2ccc(OC)cc2)cc1,"11.2 µM [rising, partial curve]","11.2 µM [rising, partial curve]"
Cc1ccc(NC(=O)CN2C(=O)COc3ccc(S(=O)(=O)NC4CCCC4)cc32)cc1Cl,,"35.5 µM [falling, single point]"
COc1cccc(-c2nnc(SC(C(=O)c3c[nH]c4ccccc34)c3ccccc3)n2C)c1 (configuration not stated),,"35.5 µM [falling, single point]"

SMILES,AC50 [1],AC50 [2]
COc1cccc(NCCC(=O)c2cccc([N+](=O)[O-])c2)c1,"35.5 µM [falling, partial curve, poor fit]","12.6 µM [falling, partial curve, poor fit]"
Cc1sc(NC(=O)c2ccco2)nc1-c1ccc2c(c1)CC(C)N2C(=O)C1CC1 (configuration not stated),,"11.2 µM [falling, partial curve, poor fit]"
O=S(=O)(c1ccc2c(c1)OCCO2)N1CCN(c2cccc(Cl)c2)CC1,"12.6 µM [rising, single point]","10 µM [rising, partial curve]"
Cc1ccnc(N2C(=O)CSC2c2ccc(Cl)cc2)c1 (configuration not stated),,"0.0282 µM [falling, full curve, poor fit]"
CCOc1ccc(-c2cc3c(=O)n(CC(=O)Nc4cc(F)ccc4C)ccn3n2)cc1,"22.4 µM [falling, single point]","15.8 µM [falling, single point]"
OCC(O)C(O)C(O)C(O)c1nc2ccccc2[nH]1 (configuration not stated),,"35.5 µM [falling, partial curve]"
N[C@H](CO)C(=O)O,"12.6 µM [rising, partial curve, poor fit]",
COCCN1Cc2cccc(C(=O)Nc3ccc(S(=O)(=O)N4CCOCC4)cc3)c2C1=O,"22.4 µM [falling, single point]","3.98 µM [falling, single point]"
COc1ccc(C(=O)N2CCN(S(=O)(=O)c3ccc(C)cc3C)CC2)cc1OC,"10 µM [rising, partial curve, poor fit]",
O=C(NCc1ccncc1)Nc1cccc([N+](=O)[O-])c1,,"0.398 µM [falling, full curve, poor fit]"
COc1cccc(OC)c1C(=O)Nc1ccc(Cc2ccncc2)cc1,"35.5 µM [rising, single point]",
CC(=O)Nc1ccccc1C(=O)C(=O)Nc1cccc(C(=O)NCC2CCCO2)c1 (configuration not stated),"1.26 µM [falling, full curve, poor fit]",
COc1ccc(C(=O)NNc2ncnc3c2cnn3-c2ccc(C)c(Cl)c2)cc1,,"0.251 µM [falling, full curve, poor fit]"
COc1cccc(NC(=O)C(Sc2nnc(-c3ccncc3)n2-c2ccc(Cl)cc2)c2ccccc2)c1 (configuration not stated),,"12.6 µM [rising, single point]"
Cc1ccc(C(=O)O/N=C/c2c(C)nn(C)c2Cl)cc1,,"6.31 µM [rising, partial curve, poor fit]"
COc1ccc(CSC2=CS(=O)(=O)c3ccccc3N2)cc1,"35.5 µM [rising, single point]",
COc1ccc(CNC(=O)CSc2ncnc3ccccc23)cc1OC,"2.82 µM [rising, partial curve, poor fit]",
O=C(Cn1ccn(-c2ccc(F)c(F)c2)c(=O)c1=O)NCCc1ccccc1,"1.26 µM [falling, partial curve, poor fit]","7.08 µM [falling, full curve, poor fit]"
CN(C)/C=N/S(=O)(=O)c1cccn1-c1ncc(C(F)(F)F)cc1Cl,"1 µM [falling, partial curve]","39.8 µM [falling, partial curve]"
CCN1CCN(c2nc3sc4c(c3c3ncnn23)CC(C)CC4)CC1 (configuration not stated),,"10 µM [rising, single point]"
O=C1Nc2ccc(Cl)cc2/C1=C/C1CC=CCC1 (configuration not stated),,"17.8 µM [rising, single point]"
O=C(/C=C/c1ccco1)NC(=S)Nc1cccc([N+](=O)[O-])c1,"4.47 µM [rising, partial curve]",
CC(=O)Nc1ccc(S(=O)(=O)NCCSCc2c(Cl)cccc2Cl)cc1,,"11.2 µM [falling, single point]"
CN(C)/C=C(\C=O)c1ncc(C(F)(F)F)cc1Cl,"4.47 µM [rising, partial curve]","4.47 µM [rising, full curve, poor fit]"
CNC(=O)C1CCC(Cn2c(=O)c3sccc3n(CC(=O)NCc3ccc(OC)cc3)c2=O)CC1 (configuration not stated),,"0.794 µM [rising, full curve, poor fit]"
COc1ccc(-c2cc(C(F)(F)F)n3ncc(C(=O)NCc4ccco4)c3n2)cc1,"12.6 µM [rising, single point]","11.2 µM [rising, partial curve, poor fit]"
O=C(c1ccccc1)c1ccc2nc(-c3ccco3)c(-c3ccco3)nc2c1,"0.00447 µM [rising, full curve, poor fit]","0.00447 µM [rising, full curve, poor fit]"

# Complete entries, looked up by structure:
# COc1cccc(OC)c1C(=O)Nc1ccc(Cc2ccncc2)cc1 as listed: AC50 [1]: 35.5 µM [rising, single point]
# O=S(=O)(c1ccc2c(c1)OCCO2)N1CCN(c2cccc(Cl)c2)CC1 as listed: AC50 [1]: 12.6 µM [rising, single point]; AC50 [2]: 10 µM [rising, partial curve]
# COc1ccc(-c2cc(C(F)(F)F)n3ncc(C(=O)NCc4ccco4)c3n2)cc1 as listed: AC50 [1]: 12.6 µM [rising, single point]; AC50 [2]: 11.2 µM [rising, partial curve, poor fit]
# Cc1ccc(C(=O)O/N=C/c2c(C)nn(C)c2Cl)cc1 as listed: AC50 [2]: 6.31 µM [rising, partial curve, poor fit]
